assay: general procedure: Boc solid-phase peptide synthesis; MBHA resin (Bachem); Merrifield resin for -NHEt peptides; Boc-Agm-SPA-MBHA resin for Agm peptides; DIC; preformed HOBt esters for Boc-Asn-OH and Boc-Gln-OH; details: whole synthesis, 220 and 280 nm, scale of the general procedure 0.50 mmol

Row | Substance | final HPLC purity [%]
1 | [PhAc-Tyr^1, D-Arg^2, Phe(pCl)^6, Har^9, Tyr(Me)^10, His^11, Abu^15, Nle^27, D-Arg^28, Har^29]hGH-RH(1-29)NH2 | >95
2 | [CH3(CH2)6CO-Tyr^1, D-Arg^2, Phe(pCl)^6, Ala^8, His^9, Tyr(Et)^10, His^11, Abu^15, Nle^27, D-Arg^28, Har^29]hGH-RH(1-29)NH2 | >95
3 | HOOC(CH2)12CO-Tyr^1D-Arg^2-Asp^3-Ala^4-Ile^5-Phe(pCl)^6-Thr^7-Asn^8-Arg^9-Tyr^10-Arg^11, Lys^12, Val^13-Leu^14-Abu^15-Gln^16-Leu^17-Ser^18-Ala^19-Arg^20-Lys^21-Leu^22-Leu^23-Gln^24-Asp^25-Ile^26-Nle^27-D-Arg^28-Har^29-NH2 | >95

same assay, conditions: whole synthesis, analytical HPLC, Supelco Discovery HS C18, 220 and 280 nm, scale of the general procedure 0.50 mmol

Row | Substance | final HPLC purity
4 | [PhAc-Tyr^1, D-Arg^2, Phe(pCl)^6, Amp^9, Tyr(Me)^10, Abu^15, Nle^27, D-Arg^28, Har^29]hGH-RH(1-29)NH2 | >95%
5 | PhAc-Tyr^1-D-Arg^2-Asp^3-Ala^4-Ile^5-Phe(pCl)^6-Thr^7-Asn^8-Har^9-Tyr(Me)^10-Arg^11-Lys^12-Val^13-Leu^14-Abu^15-Gln^16-Leu^17-Ser^18-Ala^19-Arg^20-Lys^21-Leu^22-Leu^23-Gln^24-Asp^25-Ile^26-Nle^27-D-Arg^28-Har^29-NHEt | higher than 95%
6 | [CH3(CH2)6CO-Tyr^1, D-Arg^2, Phe(pCl)^6, Amp^9, Tyr(Me)^10, Abu^15, Nle^27, D-Arg^28, Har^29]hGH-RH(1-29)NH2 | >95%
7 | [HOOC(CH2)12CO-Tyr^1, D-Arg^2, Phe(pCl)^6, Amp^9, Tyr(Me)^10, Abu^15, Nle^27, D-Arg^28, Har^29]hGH-RH(1-29)NH2 | >95%
8 | [Hca-Tyr^1, D-Arg^2, Phe(pCl)^6, Har^9, Tyr(Me)^10, Abu^15, Nle^27, D-Arg^28, Har^29, Agm^30]hGH-RH(1-30) | higher than 95%

Source: patent US7452865B2 (The Administrare's of the Tulane Educational Fund, priority 2004, dated 2008)
